Measurements published in the supplement of paper PMC12578635.
± gives the standard deviation of the averaged measurements. This is one part of the list. Repeats are few or missing, and single values can be far off.

Each compound was assayed on RAW 264.7 macrophages infected with S. aureus JE2-lux (assay: host macrophage viability (CellTiter-Fluor) relative to DMSO vehicle; higher = more viable host cells). Conditions: 10 µM; treatment time 4 h; gentamicin 50 µg/ml.
`CCOc1ccc(-c2ccc(OCCNC(=O)c3sc(-c4ccccc4)nc3C)nn2)cc1` showed a host macrophage viability of 114%. `CCOC(=O)c1c(SCC(=O)c2ccc(Cl)cc2)nc(=O)[nH]c1C` showed a host macrophage viability of 95%. Work on `COc1ccccc1CNC(=O)c1sc2nc(-c3ccc(F)cc3)cn2c1C` yielded a host macrophage viability of 109%. `Cc1cc(C)cc(Oc2ncnc3oc(C)c(C)c23)c1` was tested, and the host macrophage viability was 129%. Work on `COc1ccc(CN(Cc2cc3cc(C)ccc3nc2Cl)C(=O)Nc2ccccc2)cc1` yielded a host macrophage viability of 109%. `CCOC(=O)C1CCN(c2cc3c(cc2NC(=O)c2cccc(C)c2)n(C)c(=O)n3C)CC1` showed a host macrophage viability of 137%. In the case of `Cc1ccccc1N(CC(=O)NCc1ccc(F)cc1)C(=O)c1ccc(N2CCCC2)nc1`, the host macrophage viability is reported as 114%. For `CC(C)Oc1ccc(C(=O)C2=C(O)C(=O)N(Cc3cccnc3)C2c2cccc(O)c2)cc1` (centres undefined), the host macrophage viability was 121%. `Cc1ccc(NC(=O)CC2Nc3ccc(C(F)(F)F)cc3NC2=O)c(C)c1` (centres undefined) showed a host macrophage viability of 132%. Work on `Cc1nc2c(ccc3nc(Nc4nc5ccc(F)cc5s4)sc32)s1` yielded a host macrophage viability of 118 ± 4.7%. In the case of `CCn1cc(C(=O)N2CCCC2c2nc(-c3ccncc3)n[nH]2)c(C)n1` (centres undefined), the host macrophage viability is reported as 130%. With `COc1ccc(-n2ccnc2SCC(=O)NCc2ccc3c(c2)OCO3)cc1` the host macrophage viability was 134%. Work on `COc1cc2nc(NCCCN3CCCC3=O)n3nc(-c4cccnc4)nc3c2cc1OC` yielded a host macrophage viability of 115%. In the case of `CC(C)n1c(SCC(=O)Nc2cccc(F)c2)nc2c(-c3ccccc3)cn(C)c2c1=O`, the host macrophage viability is reported as 95.6%. Compound `COc1ccc(-c2nc3sc(CCNC(=O)C(=O)N4CCN(C(C)=O)CC4)c(C)n3n2)cc1` has a host macrophage viability of 118%. For `CCOc1ccc(NN=C2C(C)=NN=C2C)c([N+](=O)[O-])c1`, the host macrophage viability was 99.3%. For `Cc1cccc(-c2nc3scc(CCNC(=O)C(=O)Nc4cccc([N+](=O)[O-])c4)n3n2)c1`, the host macrophage viability was 102%. In the case of `CCC1CCCCN1C(=O)CCc1c(C)[nH]c2nc(NCc3ccc(Cl)cc3)nn2c1=O` (centres undefined), the host macrophage viability is reported as 118%. `Cc1ccc2c(c1)NC(=O)c1cc(NS(=O)(=O)c3ccc4c(c3)OCCO4)ccc1O2` gave a host macrophage viability of 121%. For `CCOC(=O)c1cnn(-c2ccc(C(=O)Nc3ccccc3OCC)cn2)c1N`, the host macrophage viability was 88.8%. Work on `CCc1ccc2c(c1)c1nnc(SCc3nnc(-c4ccccc4)o3)nc1n2C` yielded a host macrophage viability of 101%. For `O=c1oc2cc(OCC(O)Cn3ccnc3)ccc2c2c1CCC2` (centres undefined), the host macrophage viability was 104%. `O=C(Nc1sc2c(c1C(=O)NCCc1ccccc1)CCC2)c1cc(-c2cccs2)on1` was tested, and the host macrophage viability was 141%. `COC(=O)c1ccccc1NC(=O)CSc1nc2ccccc2s1` was tested, and the host macrophage viability was 107%. `Oc1c2c(nc3nc(Cc4ccc(Cl)cc4)nn13)CCCC2` showed a host macrophage viability of 99.8%. In the case of `NC(=O)c1ccc(NC(=O)Cn2cc(S(=O)(=O)Cc3ccccc3)c3ccccc32)cc1`, the host macrophage viability is reported as 119%. For `O=S(=O)(Oc1ccc2oc3ccccc3c2c1)c1cccs1`, the host macrophage viability was 117%. In the case of `Cc1ccccc1/N=c1\scc(-c2cccs2)n1CCO`, the host macrophage viability is reported as 104%. `Nn1c(-c2ccncc2)nn2c(=O)c3ccccc3nc12` was tested, and the host macrophage viability was 106%. `CC(C)c1ccc2nc3sc(C(=O)N4CC(=O)Nc5ccccc54)c(N)c3cc2c1` showed a host macrophage viability of 100%. `Cc1cc(C)cc(NC(=O)NCc2ccnc(N3CCCCC3)c2)c1` showed a host macrophage viability of 126%. `Clc1cccc(/C=N/Nc2ncnc3[nH]cnc23)c1` gave a host macrophage viability of 105%. Work on `CC(=O)/N=c1\sccn1CC(=O)c1ccc([N+](=O)[O-])cc1` yielded a host macrophage viability of 102%. `O=C(Nc1cccc(Br)c1)c1cccc2nc3ccccc3nc12` gave a host macrophage viability of 115%. `CCCCCCC1C(C#N)=C(N)OC2=C1C(=O)CC(C)(C)C2` (centres undefined) was tested, and the host macrophage viability was 110%. In the case of `O=C(CCc1ccccc1)Nc1nc2c(s1)CSc1ccccc1-2`, the host macrophage viability is reported as 107%. With `O=C(COc1ccc(Cl)cc1Cl)NCC(=O)N/N=C/c1cccs1` the host macrophage viability was 120%. `Cc1ccn2cc(CCNS(=O)(=O)c3ccc([N+](=O)[O-])cc3)nc2c1` was tested, and the host macrophage viability was 128%. For `COc1ccc(CCNC(=O)CSc2ncnc3[nH]ncc23)cc1OC`, the host macrophage viability was 107%. Compound `CCC(=O)Nc1cccnc1-c1ccc(C(=O)Nc2ccc(OC)cc2OC)cc1` has a host macrophage viability of 105%. Work on `Cc1oc2ncnc(N3CCC(C(=O)NCCc4ccccc4Cl)CC3)c2c1C` yielded a host macrophage viability of 116%. Work on `O=C(OC1CCCCC1)c1cc2ccccc2oc1=O` yielded a host macrophage viability of 124 ± 13%. `Cc1ccc(-c2c(C(F)(F)F)nn3c(NCCN(C)C)cc(C)nc23)cc1` was tested, and the host macrophage viability was 106%. `Cc1ccc(C(=O)CSc2nnc3[nH]c(=O)c(C)nn23)cc1C` was tested, and the host macrophage viability was 113%. `CC(Cn1cnc2ccccc21)C(=O)N/N=C1/C(=O)Nc2ccccc21` (centres undefined) showed a host macrophage viability of 113%. `CC(=O)c1csc(NC(=O)c2cc3ncc(C(C)=O)c(C)n3n2)n1` showed a host macrophage viability of 130%. In the case of `CCN(Cc1ccccc1)C(=O)CCN1C(=O)/C(=C\c2ccco2)SC1=S`, the host macrophage viability is reported as 128%. `O=S1(=O)N=C(SCc2cccc(F)c2)Nc2ccc(Cl)cc21` gave a host macrophage viability of 120%. For `CC(=O)N1CCc2cc(NC(=O)CSc3nnc4ccccn34)ccc21`, the host macrophage viability was 130%. `CC(C)c1cc(C(=O)Nc2cccc(-c3nc4ccccc4o3)c2)nn1C1CCS(=O)(=O)C1` (centres undefined) gave a host macrophage viability of 134%. In the case of `NC(=O)c1ccsc1NC(=O)c1sc2ccccc2c1Cl`, the host macrophage viability is reported as 133%. Compound `CCOC(=O)Cc1ccc(NC(=O)Nc2ccc(Sc3c(CC)c(C)nc4ncnn34)cc2)cc1` has a host macrophage viability of 102%. `COc1cc(C(=O)Nc2cccc(C(=O)N3CCCCC3)c2)c2ccccc2n1` showed a host macrophage viability of 106%. For `Cn1c(=O)c2c(nc(NCc3cccnc3)n2CC(=O)c2ccccc2)n(C)c1=O`, the host macrophage viability was 131%. `N#Cc1c(NC(=O)c2ccc(-c3nc4ccccc4s3)s2)sc2c1CCC2` showed a host macrophage viability of 127%. In the case of `CCOC(=O)c1c(NC(=S)NC(=O)c2ccc(C(=O)OC)cc2)sc(OC(=O)CC)c1C`, the host macrophage viability is reported as 113 ± 5.2%. `COC(=O)c1cc(OC)c(OC)cc1NC(=O)c1cc2ccccc2oc1=O` showed a host macrophage viability of 95.3%. For `COCCNC(=O)c1c(N)n(/N=C/c2ccncc2)c2nc3ccccc3nc12`, the host macrophage viability was 114%. `O=C1CC(Nc2ccc(N3CCOCC3)cc2)C(=O)N1` (centres undefined) gave a host macrophage viability of 120%. With `O=C(CC1Sc2ccccc2NC1=O)Nc1ccccc1F` (centres undefined) the host macrophage viability was 126%. Compound `CCOC(=O)c1ccccc1NC(=O)CSc1nnc(C2CCCCC2)n1-n1cccc1` has a host macrophage viability of 112%. `CC(=O)C1=C(C)Nc2ncnn2C1c1ccc(C(C)C)cc1` (centres undefined) was tested, and the host macrophage viability was 113%. For `COc1ccc(Cn2c(C)nc3cc(Cl)c(NC(=O)c4ccncc4)cc3c2=O)cc1`, the host macrophage viability was 100%. For `O=C(Nc1nc2ccc(F)cc2s1)c1ccc2c(c1)CCCC2`, the host macrophage viability was 89.5%. `CS(=O)(=O)Nc1cccc(C2=NN(C(=O)C3CCCCC3)C(c3cccc(F)c3)C2)c1` (centres undefined) was tested, and the host macrophage viability was 93.7%. Work on `O=C(NNc1nc2c(F)cc(F)cc2s1)c1coc2ccccc2c1=O` yielded a host macrophage viability of 108 ± 3.7%. Compound `Cc1nc(SCC(=O)Nc2cccc(F)c2)[nH]c(=O)c1C` has a host macrophage viability of 114%. `Cc1sc2nc(SCC(=O)Nc3ccc(S(N)(=O)=O)cc3)[nH]c(=O)c2c1C` gave a host macrophage viability of 104%. Compound `CCOc1ccc(-n2c(=O)[nH]c3c(C(N)=O)nc(-c4ccc(C)o4)nc32)cc1` has a host macrophage viability of 116%. `COc1ccc(OC)c2sc(NNC(=O)c3c(F)cccc3F)nc12` was tested, and the host macrophage viability was 117 ± 8.2%. Work on `COc1ccc(NC(=O)CC2NC(=O)NC2=O)cc1` (centres undefined) yielded a host macrophage viability of 113%. For `NS(=O)(=O)c1ccc(NC2=NC(=O)C(CC(=O)O)S2)cc1` (centres undefined), the host macrophage viability was 117%. `C#CCOc1cccc(C2CC(=O)Nc3c2cnn3-c2nc3ccccc3s2)c1` (centres undefined) showed a host macrophage viability of 118%. In the case of `O=C1C2ON(c3ccc(Cl)cc3)C(c3ccc(F)cc3)C2C(=O)N1c1ccc([N+](=O)[O-])cc1` (centres undefined), the host macrophage viability is reported as 102%. `O=C(CSc1ncnc2c1sc1nc3ccccc3cc12)Nc1ccc2c(c1)OCO2` was tested, and the host macrophage viability was 124%. For `O=C(C1=C(O)C(=O)N(c2nncs2)C1c1ccc(F)cc1)c1cccs1` (centres undefined), the host macrophage viability was 122%. In the case of `CCOC(=O)c1c(NC(=O)CSc2ccccc2N)sc(C(C)=O)c1C`, the host macrophage viability is reported as 115%. In the case of `C=CCNC(=O)c1ccc(COc2ccccc2Cl)o1`, the host macrophage viability is reported as 128%. Work on `C=CCn1c(SCC(=O)NCc2cccnc2)nc2sc3c(c2c1=O)CCCC3` yielded a host macrophage viability of 115 ± 7%. In the case of `CC(=O)NC(=O)c1cc2cc(Cl)ccc2o/c1=N\c1cccc2ccccc12`, the host macrophage viability is reported as 106 ± 3.2%. Compound `CCS(=O)(=O)c1ccccc1C(=O)Nc1ccc(C)cc1C(=O)c1ccccc1` has a host macrophage viability of 108%. Work on `Cc1c(-c2ccccc2)n[nH]c1C(=O)Nc1cccc(C(=O)N2CCCCC2)c1` yielded a host macrophage viability of 115%. With `COc1ccc(/C(C)=N/N2CC(=O)Nc3ccccc32)cc1` the host macrophage viability was 122%. For `COc1ccccc1CNC(=O)CSc1nnc2c(n1)[nH]c1ccc(F)cc12`, the host macrophage viability was 103%. With `CCOCCCNC(=O)c1ncoc1-c1ccc(F)cc1` the host macrophage viability was 94.2%. For `O=C(O)CCCNc1ncnc2c1oc1ccccc12`, the host macrophage viability was 121%. `O=C(CSc1ncc(S(=O)(=O)c2ccc(Cl)cc2)c(=O)[nH]1)Nc1ccc2c(c1)OCCO2` showed a host macrophage viability of 118%. In the case of `CCOC(=O)c1ccc(Nc2[nH]c(=O)c3ccccc3c2C(=O)c2ccncc2)cc1`, the host macrophage viability is reported as 101%. Work on `NC(=O)CSC1=NS(=O)(=O)c2cc(Cl)ccc2N1` yielded a host macrophage viability of 123%. Compound `Cc1cc(NC(=O)C2CCN(S(=O)(=O)c3cc(-c4noc(C)n4)sc3C)CC2)c2ccccc2n1` has a host macrophage viability of 112%. `CCCNC(=O)NCC(c1cccnc1)c1c[nH]c2ccccc12` (centres undefined) gave a host macrophage viability of 120%. `CCNc1nc(Nc2ccc(Cl)cc2)c2cnn(C)c2n1` gave a host macrophage viability of 110%. For `CCCCC1CCC(C(=O)Nc2cc(C)nn2-c2ncnc3c2cnn3-c2ccc(Cl)cc2)CC1` (centres undefined), the host macrophage viability was 116%. With `CC1CCc2c(sc(NC(=O)C(C)Oc3cccc(Br)c3)c2C#N)C1` (centres undefined) the host macrophage viability was 106%. With `CCCc1cc(C(=O)Nc2ccc3c(c2)CC(C)N3C(C)=O)[nH]n1` (centres undefined) the host macrophage viability was 114%. Compound `O=C(COc1ccc2ccccc2c1)Nc1nnc2n1CCS2` has a host macrophage viability of 127%. `N#CC1=C(N)OC2=C(C(=O)CC(c3ccccc3)C2)C1C1CCCCC1` (centres undefined) gave a host macrophage viability of 103%. With `COc1ccc(Cn2ccc3nc(C)c(C(=O)NCc4ccc(Cl)cc4)cc3c2=O)cc1` the host macrophage viability was 129%. `Nn1c(SCC(=O)N2CCCCCC2)nncc1=O` gave a host macrophage viability of 114%. For `CC(=O)Nc1cccc(NC(=O)CSc2nc(=O)n3cc(Cl)ccc3n2)c1`, the host macrophage viability was 105%. Work on `CC1CCCCN1S(=O)(=O)c1ccc(C(=O)Nc2ccccc2Oc2ccccc2)cc1` (centres undefined) yielded a host macrophage viability of 104%. `COc1ccc2cc(CCNC(=O)c3ccc([N+](=O)[O-])cc3)c(=O)[nH]c2c1` was tested, and the host macrophage viability was 133%. Compound `CC(=O)C(C)n1c(CN2CCN(C(=O)c3ccco3)CC2)nc2c1c(=O)n(C)c(=O)n2C` (centres undefined) has a host macrophage viability of 104%. Compound `Cc1nc(-c2ccccc2)c(CC(=O)NC(c2cccs2)C(C)C)s1` (centres undefined) has a host macrophage viability of 117%.
